Screen size: about 1,400 compounds; about 140 (10%) were called active.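 How the source made its calls: active means Half-maximal inhibitory dose from the fit at or below ten times the top valid tested dose; inconclusive means Invalid fit, or flat curve showing 30 to 70% inhibition; inactive means the rest.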 The entries are a selection whose mix differs from that of the whole data set. Results with a measured potency or affinity are listed apart.
target: Lysine-specific demethylase 4C (Homo sapiens) (UniProt Q9H3R0); assay: inhibition of JMJD2C H3K9me3 demethylation – biochemical, DELFIA europium, cherry-picked samples, dose response (AID 488835); details: GST-JMJD2C(1-420); at 6 µM (top of the series) unless noted;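 further: signal is the H3K9me2 demethylation product detected by a dimethyl-specific antibody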

Chains of the proteins cited; added tags and fusions are not shown. Residues count along the entry.
UniProt Q9H3R0, 1-420 limits assumed: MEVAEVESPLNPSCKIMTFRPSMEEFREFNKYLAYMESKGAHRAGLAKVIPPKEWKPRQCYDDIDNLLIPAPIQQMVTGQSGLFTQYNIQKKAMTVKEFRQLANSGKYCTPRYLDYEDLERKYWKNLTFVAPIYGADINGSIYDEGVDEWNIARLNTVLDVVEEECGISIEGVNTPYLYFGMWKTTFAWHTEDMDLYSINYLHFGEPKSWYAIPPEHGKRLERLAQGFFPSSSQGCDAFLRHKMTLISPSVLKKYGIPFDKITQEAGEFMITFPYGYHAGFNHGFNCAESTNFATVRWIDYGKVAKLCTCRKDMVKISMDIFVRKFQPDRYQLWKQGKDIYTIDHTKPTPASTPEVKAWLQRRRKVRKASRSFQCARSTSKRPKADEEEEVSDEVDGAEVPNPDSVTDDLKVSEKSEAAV

Activity change, negative = inhibition, inactive:
Cc1ccc(S(=O)(=O)N2[C@@H](c3ccc(C#N)cc3)C(C(=O)O)=C[C@H]2C(C)(C)C)cc1 5.5%, CCc1ccc(C(=O)CSc2nc3ccccc3c(=O)[nH]2)cc1 8.14%, CCOC(=O)c1c(NC(=O)c2cc(-c3ccc(O)cc3)on2)sc(C(C)=O)c1C -8.22%, Oc1ccc(-c2nc3ncccn3c2Nc2ccc3c(c2)OCO3)cc1 2.35%, CN(C)c1ccc(N=Cc2nc(-c3ccccc3)oc2OC(=O)c2ccccc2)cc1 10.3%, COc1ccc(N/C=C2/CCCCC2=O)cc1 -1.16%, O=C(Cn1nc(-c2ccc(Cl)cc2)ccc1=O)NCC1COCCO1 (centres undefined) 10.9%, Cn1c(=O)c(-c2ccccc2)nn2c3ccccc3nc12 7.46%, CC(C)NC(=O)Nc1ccc2c(c1)C(=O)N([C@H](C)CO)C[C@@H](C)[C@@H](CN(C)C(=O)NC1CCCCC1)O2 1.53%, CCOC(=O)Nc1cc(C)c(Cl)cc1OC 3.42%, NC(=O)C1CCN(c2nc(-c3ccccc3Br)cs2)CC1 -3.63%, Cc1nn(-c2cccc(C(=O)O)c2)c(C)c1Oc1ccccc1O 4.86%, COC(=O)c1cccc(C#CC(NP(=O)(c2ccccc2)c2ccccc2)c2ccccc2)c1 (centres undefined) 7.2%, O=C(N/N=C/c1ccc(O)cc1)c1cncc(Br)c1 4.32%, Cc1nc2sc(C(c3cccc(F)c3)N3CCOCC3)c(O)n2n1 (centres undefined) 17.7%, O=C(NNC(=O)c1cccs1)c1ccc([N+](=O)[O-])cc1 -4.01%, O=C(c1cccs1)N1CCN(S(=O)(=O)c2ccc(F)cc2)CC1 10.2%, CCNC(=S)NNC(=O)c1csc2c1CCC(C)C2 (centres undefined) -2.11%, CCC(C(=O)NCCCc1ccccc1)c1ccccc1 (centres undefined) -4.57%, CC(=O)Oc1ccc(NC(=O)Cc2ccccc2)c(C(=O)O)c1 -0.875%, CCOC(=O)Cn1c(=O)cnc2ccccc21 5.57%, Cc1cccc(NC(=O)CCN2CCN(C/C=C/c3ccccc3)CC2)c1 -3.63%, CCc1nn2c(N3CCOCC3)cc(C)nc2c1-c1ccc(F)cc1 1.33%, O=C(Cn1cnc2ccccc2c1=O)NCc1cccs1 -6.18%, CC(C)(C)NC(=O)C1CCN(C(=O)c2ccc(Br)cc2)CC1 3.64%, CCC(CO)Oc1cc(NC(=O)c2cccc(OC)c2)c2ncn(C(C)C)c2c1 (centres undefined) -5.66%, CCN(CC)CCSc1nc2ccccc2c(=S)n1-c1ccccc1 -2.56%, C#CCOCCOCCOCCNc1nc(N2CCN(C(=O)C([C@@H](C)O)n3cc([C@@H](N)CCCCN)nn3)CC2)nc(N2CCN(C(=O)[C@H](CC(N)=O)n3cc([C@@H](N)C(C)C)nn3)CC2)n1 (some centres undefined) 2.9%, O=C(O)c1ccc2c(c1)C(=O)N(CCC1=CCCCC1)C2=O 8.21%, CN1CCN(c2nc3ccccn3c(=O)c2/C=C(\C#N)S(=O)(=O)c2ccc(Cl)cc2)CC1 5.1%, CC1CCN(S(=O)(=O)c2ccc3[nH]c(=O)[nH]c3c2)CC1 -1.92%, CC1=NN(C(N)=S)C(=O)C1N=Nc1c(C)cc(C)cc1C (centres undefined) 1.58%, C=CCNC(=S)Nc1ccc(N2CCOCC2)c(S(=O)(=O)Nc2ccccc2Cl)c1 3.98%, Cc1c(NC(=O)CCN2C(=O)c3ccccc3C2=O)c(=O)n(-c2ccccc2)n1C -4.88%, Cc1ccc2nc(-c3cccc(NS(C)(=O)=O)c3)cc(-c3ccccc3)c2c1 8.31%, Cc1nnc(-c2cccc(Br)c2)c2cn(-c3ccccc3Cl)nc12 -0.242%, O=c1c2cnn(-c3ccccc3)c2nc(-c2cccs2)n1-c1ccc(Cl)cc1 -0.616%, Cc1ccc(-c2noc(C3CCN(S(C)(=O)=O)CC3)n2)o1 -3.12%, CCC(=O)Nc1cc2c(cc1C(=O)CC)OCCO2 -4.12%, CCOc1ccc(CN(C)CC(=O)Nc2cc(C)c(C)cc2[N+](=O)[O-])cc1 -0.977%, COc1ccc(NC(=S)NCCCn2ccnc2)cc1 -4.85%, Cc1nc(C(C)NC(=O)CCc2nnc(CCCc3ccccc3)o2)c(C)s1 (centres undefined) 4.59%, CCOC(=O)c1sc(=S)n(-c2ccc(Cl)cc2)c1SC -5.62%, O=C(CSc1nnc(CNC(=O)c2ccco2)o1)NC1CCCC1 -0.42% [at 1.6 µM], CCCC(=O)NC(c1cccs1)c1cc(Cl)c2cccnc2c1O (centres undefined) -4.81%, O=C1CCCC2=C1C(c1ccc(OS(=O)(=O)c3ccc(Cl)cc3)cc1)C1=C(CCCC1=O)O2 1.91%, Cc1ccc(NC(=O)/C=C/c2cccs2)c([N+](=O)[O-])c1 7.91%, C#CCOCCOCCOCCNc1nc(N2CCN(C(=O)[C@H](CCCN=C(N)N)n3cc(C(N)[C@H](C)CC)nn3)CC2)nc(N2CCN(C(=O)[C@H](CC(N)=O)n3cc(C(N)[C@@H](C)CC)nn3)CC2)n1 (some centres undefined) -2.68%, Cc1ccc(/C(N)=N/OC(=O)N2c3ccccc3Sc3ccccc32)cc1 -8.04%, CCOC(=O)C1CCN(C(=O)CN(c2ccc(OC)c(OC)c2)S(=O)(=O)c2ccccc2)CC1 0.373%, CSc1ccc(-c2nc(CSCC(=O)N3CCOCC3)c(C)o2)cc1 -2.12%, NS(=O)(=O)c1ccc(CCNC(=O)CSc2ccccc2)cc1 3.66%, COc1cc(/C=N/N2C(=O)C3C4c5ccccc5C(c5ccccc54)C3C2=O)ccc1O (centres undefined) -0.389%, CCCCCNc1nc(-c2ccccc2)nc(-n2ccnc2)n1 0.629%, Cc1ccc(S(=O)(=O)Nc2ccc3c(c2)CC(=O)N([C@H](C)CO)C[C@@H](C)[C@H](CN(C)S(=O)(=O)c2ccccc2)O3)cc1 4.66%, COc1ccc(-c2cc(C(F)(F)F)nc(SCCC(=O)NCc3ccco3)n2)cc1 4.42%, CCCN(CC(=O)Nc1ccccc1C)C(=O)CCl 1.8%, O=C(O)c1ccc2cc(-c3ccccc3)[nH]c2c1 4.85%, CC(=O)Nc1cc2c(cc1NC(=O)Cn1nc(-c3ccccc3)ccc1=O)OCCO2 -7.55%, COc1ccc(C(CNC(=O)c2oc3cc(Br)ccc3c2C)N2CCCCC2)cc1 (centres undefined) 1.37%, COc1ccc(Br)cc1CN(C)CC(=O)NCc1ccc(F)cc1 -5.46%, Cn1c(=O)[nH]c(=O)c2c1nc(NCCCO)n2Cc1ccc(F)cc1 3.15%, CCCCN(C)C(=O)CCC(=O)NNc1nc2ccccc2c2nc(C)nn12 -5.21%, CCOCCCNC(=O)c1c[nH]c2ccc(C)cc2c1=O -1.72%, C=CCc1c(C)nc(SC(C)C)[nH]c1=O 5.84%, O=C(N/N=C/c1ccc([N+](=O)[O-])o1)c1cn(-c2ccccc2)nc1-c1ccc(F)cc1 -0.632%, O=C(c1ccsc1)N1CCN(C(=O)c2cccs2)CC1 2.81%, COc1ccc(S(=O)(=O)Nc2ccc3c(c2)C(=O)N([C@H](C)CO)C[C@H](C)[C@H](CN(C)Cc2ccc(C(=O)O)cc2)O3)cc1 8.66%, COc1ccc(NC(=O)NCCCCc2ccccc2)c(OC)c1 -0.647%, CCc1ccc2oc(=O)cc(CN3CCOCC3)c2c1 5.79%, COc1cccc(/C=C/C(=O)OCC(=O)Nc2cccc(S(=O)(=O)N(C)C)c2)c1 5.47%, CS(=O)(=O)c1ccccc1-c1csc(N2CCC(C(N)=O)CC2)n1 -1.15% [at 1.6 µM], CC(C)N(Cc1ccccc1)C(=O)COC(=O)c1ccc2c(c1)OCCO2 8.53%, Oc1ccccc1N1CCN(C(=S)NCc2ccccc2)CC1 3.28%, CCC(C)(C)n1nnnc1CN1CCc2ccccc21 2.23%, CCOC(=O)C1=C(c2ccccc2)NC(=O)NC1c1ccc(O)c(OCC)c1 (centres undefined) 0.617%, Nc1cc(OC(=O)c2ccccc2Br)nn1S(=O)(=O)c1ccccc1 4.46%, CN(CCCNC(=O)CSc1cc(=O)n(C)c2ccc(Cl)cc12)Cc1ccccc1 -0.557%, C=CCNC(=S)NNC(=O)COc1cccc(Cl)c1 2.43%, Cc1ccc(NC(=O)COC(=O)c2ccco2)cc1S(=O)(=O)N1CCOCC1 -1.53%, CCn1c(SCC(=O)NCc2ccco2)nnc1-c1cccs1 -0.879%, O=C(NCc1nnc(SCC(=O)N2CCCCC2)o1)c1c(F)cccc1F 3.3%, O=C1CC(N2CCC(O)(c3ccc(Cl)cc3)CC2)C(=O)N1Cc1ccc(N2CCCC2=O)cc1 (centres undefined) 11.4%, Cn1nc(NC(=O)C(C)(C)C)c2c(F)cccc21 1.57%, CCCS(=O)(=O)N1CCN(S(=O)(=O)c2ccccc2[N+](=O)[O-])CC1 9.99%, O=c1[nH]cnc2c1c(-c1ccccc1)cn2-c1ccccc1 5.51%, Clc1cccc(Cl)c1Cn1c(-c2cccnc2Cl)nc2ccccc21 5.67%, CC(=O)C(Sc1nc(N2CCOCC2)nc(N2CCOCC2)n1)C(=O)Nc1ccccc1 (centres undefined) 3.53%, COc1cc(S(=O)(=O)N(Cc2cccs2)CC2CCCO2)ccc1-n1cnnn1 (centres undefined) -8.7%

Source: PubChem BioAssay AID488835 (Broad Institute, 2010)
